## Results of single-concentration screens

Sequences of proteins named here, by UniProt entry; tags and fusion partners are left off. Residues count along the entry.
UniProt A4I591, 1-473: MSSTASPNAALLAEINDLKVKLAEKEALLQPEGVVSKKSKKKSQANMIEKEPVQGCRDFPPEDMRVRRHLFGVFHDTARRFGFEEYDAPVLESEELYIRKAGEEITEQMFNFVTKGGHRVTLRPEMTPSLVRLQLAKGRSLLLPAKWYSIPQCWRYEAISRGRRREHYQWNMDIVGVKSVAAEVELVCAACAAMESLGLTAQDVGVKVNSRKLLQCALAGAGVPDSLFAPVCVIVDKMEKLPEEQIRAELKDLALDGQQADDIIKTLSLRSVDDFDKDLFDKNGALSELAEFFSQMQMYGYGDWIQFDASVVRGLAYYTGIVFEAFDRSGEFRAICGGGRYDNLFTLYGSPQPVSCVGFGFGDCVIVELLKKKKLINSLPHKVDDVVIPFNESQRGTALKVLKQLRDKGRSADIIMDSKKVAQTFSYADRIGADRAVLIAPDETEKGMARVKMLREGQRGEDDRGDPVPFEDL
UniProt P9WFT3, whole entry: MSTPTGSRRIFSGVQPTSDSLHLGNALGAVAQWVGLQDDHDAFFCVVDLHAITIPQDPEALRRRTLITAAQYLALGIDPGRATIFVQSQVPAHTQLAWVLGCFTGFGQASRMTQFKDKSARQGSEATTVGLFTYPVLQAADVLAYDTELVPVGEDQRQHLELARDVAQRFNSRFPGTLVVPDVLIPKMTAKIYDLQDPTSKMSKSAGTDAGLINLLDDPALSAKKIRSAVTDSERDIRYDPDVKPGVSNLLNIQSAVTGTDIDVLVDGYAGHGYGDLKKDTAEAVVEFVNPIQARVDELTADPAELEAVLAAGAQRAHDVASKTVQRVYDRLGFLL

Data taken from ChEMBL document CHEMBL3988442, “University of Dundee, Small-Polar-MMV Screening Library” (2021).

A: 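Enzyme assay of histidyl-tRNA synthetase; the read-out is not stated. Target: Histidine-tRNA ligase, Leishmania infantum (UniProt A4I591). Compounds at 30 µM. Higher reads as stronger inhibition (inferred: compounds with an IC50 in retests scored well above the rest). The assay is labelled LdHisRS but filed under L. infantum. About 69,000 compounds were tested under these conditions; 0.6% (about 410) showed 50% or more at least once.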
B: 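Tryptophan-tRNA ligase, Mycobacterium tuberculosis (UniProt P9WFT3). Enzyme assay of tryptophanyl-tRNA synthetase; the read-out is not stated. Compounds at 10 µM. Higher most likely means stronger inhibition; the record gives no direction and few retests gave an IC50. About 65,000 compounds were tested under these conditions; 0.098% (about 64) showed 50% or more at least once.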

Values are the deposited “Percent Effect”, in %.
How 0% and 100% were set is not recorded. Most values in the screen are low, and negative values occur.
The compounds are a random part of those screened.
A dash means the value is not listed here; it may have been measured.

CC(=O)N1CCN([C@@H]2CC[C@@H](N(C)C(=O)C3CCCCC3)[C@H]2O)CC1 read A: -30.43%.
COc1ccc(F)c(-c2cc(O)nc(N)n2)c1 read A: 8.547%; B: -3.926%.
O=C(CCCc1nc(-c2ccccc2)no1)N1CCN(CCO)CC1 read A: -3.571%; B: 4.023%.
CCc1nccn1CCC(=O)N1CC[C@H](CO)[C@H](O)C1 read A: 5%; B: -5.518%.
Cc1cnn(C2CN(CC(O)c3ccc(F)cc3)C2)c1 (stereo not drawn) read A: 8.738%; B: 3.197%.
CC(=O)N1CCC(C(=O)NC2CCc3nccn3C2)CC1 (stereo not drawn) read A: -39.51%; B: 3.599%.
Cc1cnn(CC2CCCN2Cc2noc(C)n2)c1 (stereo not drawn) read A: 11.3%; B: -2.3%.
COc1ccc(C(=O)NS(=O)(=O)c2ccc(C#N)cc2C(F)(F)F)cc1 read A: 23.81%; B: -0.7042%.
CCCSCC(=O)N1CCC2(CC1)CC(c1ccccc1)CN(C)C2 (stereo not drawn) read A: 13.89%; B: 8.262%.
O=C(c1cn(CC(=O)N2CCCCCC2)c2ccccc12)C1CC1 read A: -5.714%; B: -3.526%.
COc1ccc(/C=C/CN2CCN(c3nccnc3C)CC2)cc1 read A: 19.78%; B: 5.96%.
Cc1csc(NC(=O)C2(C)CN(C)CCO2)n1 (stereo not drawn) read A: 7.194%; B: -2.214%.
O=S(=O)(c1cc(F)ccc1F)N1CCCC1c1ccncc1 (stereo not drawn) read A: 18.09%; B: 6.323%.
CCn1nc(C)c(NC(=O)CN2CCN(C(C)=O)CC2)c1C read A: 11.48%; B: -2.807%.
COc1cc(C(=O)NCC2CC2)nc2c(C)cc(F)cc12 read A: 6.522%; B: 1.608%.
COc1ccccc1CN(C)C(=O)C[S+]([O-])Cc1cc(C)on1 (stereo not drawn) read A: 9.326%; B: -2.556%.
CCN(CC1CCOCC1)C(=O)Cn1ccccc1=O read A: 13.16%; B: 0.5198%.
Cc1nn(C)c(Cl)c1C(=O)NCC1(C(N)=O)CCOCC1 read A: 17.65%; B: 2.422%.
CNC(=O)CC1CCN(Cc2nc(-c3ccc(SC)cc3)oc2C)CC1 read A: 26.92%; B: 1.625%.
COCCOc1ccc(NC(=O)N(C(C)C)C2CC2)cn1 read A: 14.29%; B: -2.312%.
CCN1CCN(C[C@@H]2CN(c3ncccc3C(F)(F)F)C[C@@H]2CO)CC1 read A: 6.349%; B: 0.4955%.
CC(C)C(NC(=O)c1ccc(Cl)cc1Cl)C(=O)Nc1cnn(C)c1 (stereo not drawn) read A: 3.509%; B: 6.901%.
O=C(c1ccc(-c2ccsc2)nc1)N1CCCN(C2CCCCC2)CC1 read A: 4.301%; B: 0.25%.
CCCn1cnc(NC(=O)NCC2CCS(=O)(=O)C2)n1 (stereo not drawn) read A: -10.34%; B: -6.281%.
CC(CNc1nccc(C(C)C)n1)Oc1cccnc1 (stereo not drawn) read A: 5.208%; B: -0.2425%.
CCC(=O)N(CCC(=O)O)Cc1ccc(F)c(F)c1 read A: 10.87%; B: -1.581%.
CC(C)Nc1nc2c(s1)C(=O)CN(C)C2 read A: -108.6%.
Cn1cnnc1SC1CCc2ccccc2NC1=O (stereo not drawn) read A: 15%; B: -2.576%.
Cc1[nH]c(=O)[nH]c(=O)c1CN1CCCC(CCc2ccc(F)cc2F)C1 (stereo not drawn) read A: 24.59%; B: 2.199%.
C[C@@H]1CN(c2nc3c(cc2C(N)=O)CCC3)C[C@@]1(O)C1CCC1 read A: 14.94%; B: 2.692%.
CN1CCCC1c1cncc(C(=O)NCCN2CCCC2)n1 (stereo not drawn) read A: 9.929%; B: -3.763%.
Cc1cc(C(=O)N2CCC3(CC2)C(=O)N(C)CCN3CC(C)C)c(C)o1 read A: 13.86%.
Cc1cnn(C2CCCN(C(=O)c3ccc(O)nc3)C2)c1 (stereo not drawn) read A: 12.17%; B: -0.2921%.

Once more, the final 4:

structure	A	B
C[C@@H]1CN(c2nc3c(cc2C(N)=O)CCC3)C[C@@]1(O)C1CCC1	14.94	2.692
CN1CCCC1c1cncc(C(=O)NCCN2CCCC2)n1 (stereo not drawn)	9.929	-3.763
Cc1cc(C(=O)N2CCC3(CC2)C(=O)N(C)CCN3CC(C)C)c(C)o1	13.86	-
Cc1cnn(C2CCCN(C(=O)c3ccc(O)nc3)C2)c1 (stereo not drawn)	12.17	-0.2921